These are yes or no findings as the source states them, for the method shown. Some results given as binding are weak or reduced against the parent protein; the word gives no strength. For some of these results: Sequences can lack the tags named with a protein.
What was measured:
VEGFR2-Fc fusion protein [1] = target: VEGFR2-Fc fusion protein (UniProt P35968); test: Biacore (FIG. 14)
VEGFR2-Fc fusion protein [2] = target: VEGFR2-Fc fusion protein (UniProt P35968); test: sandwich ELISA (FIG. 13)
VEGFR2-Fc fusion protein [3] = target: VEGFR2-Fc fusion protein (UniProt P35968); test: Biacore T100, VEGFR2-huFc captured by anti-hu IgG Fc antibody on CM5, clone 87 at 100 nM and 200 nM
VEGFR2-Fc fusion protein [4] = target: VEGFR2-Fc fusion protein (UniProt P35968); test: sandwich ELISA: VEGFR2-Fc immobilized, cleared lysate, then HSA, anti-HSA-HRP detection
VEGFR2-Fc fusion protein [5] = target: VEGFR2-Fc fusion protein (UniProt P35968); test: sandwich ELISA
VEGFR2-Fc fusion protein [6] = target: VEGFR2-Fc fusion protein (UniProt P35968); test: Biacore T100
hen egg white lysozyme = target: T1, hen egg white lysozyme (hen, UniProt P00698 19-147, biotinylated (HEL-b); sites not stated); test: yeast display selection
T1 construct: also called lyzozyme; HEL-b (biotinylated)

Amino acid sequences for entries named in this document (tags omitted). Residues count along the entry.
UniProt P35968, residues 20-764: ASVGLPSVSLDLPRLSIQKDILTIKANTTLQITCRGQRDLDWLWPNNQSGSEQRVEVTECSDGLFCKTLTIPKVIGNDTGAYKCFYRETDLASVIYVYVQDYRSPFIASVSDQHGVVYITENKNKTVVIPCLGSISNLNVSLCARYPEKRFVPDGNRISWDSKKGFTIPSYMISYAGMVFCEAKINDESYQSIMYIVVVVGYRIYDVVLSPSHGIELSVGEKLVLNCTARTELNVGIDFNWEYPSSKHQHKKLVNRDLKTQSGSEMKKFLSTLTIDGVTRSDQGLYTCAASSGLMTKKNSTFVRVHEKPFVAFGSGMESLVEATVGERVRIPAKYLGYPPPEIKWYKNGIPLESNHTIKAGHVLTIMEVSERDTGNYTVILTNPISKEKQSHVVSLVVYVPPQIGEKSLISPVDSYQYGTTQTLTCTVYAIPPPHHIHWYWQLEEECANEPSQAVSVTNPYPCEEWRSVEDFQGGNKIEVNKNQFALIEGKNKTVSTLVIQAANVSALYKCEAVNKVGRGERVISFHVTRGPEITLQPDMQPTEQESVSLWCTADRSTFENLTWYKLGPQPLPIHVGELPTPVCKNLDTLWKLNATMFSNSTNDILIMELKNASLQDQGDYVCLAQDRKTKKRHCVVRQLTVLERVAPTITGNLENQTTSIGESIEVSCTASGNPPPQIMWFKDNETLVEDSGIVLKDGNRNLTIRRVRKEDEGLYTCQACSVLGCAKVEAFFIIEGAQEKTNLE

Measured: binding

B1: clone 87 (multispecific Fn3-based binding molecule; VEGFR2 top side binder fused to bottom side sequence 8 from FIG. 7 with GS linker) (designed binder)
chain: MGVSDVPRDLEVVAATPTSLLISWRHPHFPTRYYRITYGETGGNSPVQEFTVPLQPPLATISGLKPGVDYTITVYAVTKERNGRELFTPISINYRTGGGGSGGGGSVSDVPRDLEVVAATPTSLLISWDAPAVTVRYYRITYGRTDAKSTRKEFTVPGSKSTATIGELKRGRDYTITVYAVTGRGDSPASSKPISINYRPEKENLYFQGHHHHHH
notes: ELISA used cleared lysate, Biacore soluble protein; also called Fibronectin clone 87 (multispecific)
not listed: VEGFR2-Fc fusion protein [6] | hen egg white lysozyme
binds: all other assays above

B2: clone 89 (bispecific Fn3-based binding molecule; VEGFR2/Bottom side SEQ ID NO: 8 merged molecule) (designed binder)
chain: MGVSDVPRDLEVVAATPTSLLISWRHPHFPTRYYRITYGRTDAKSTRKEFTVPLQPPLATIGELKRGRDYTITVYAVTKERNGRELFTPISINYRPEKENLYFQGHHHHHH
notes: the entry ends in ENLYFQG-HHHHHH; also called VEGFR2-HAS; single bispecific fibronectin molecule
binds: VEGFR2-Fc fusion protein [2] | VEGFR2-Fc fusion protein [4] | VEGFR2-Fc fusion protein [5] | VEGFR2-Fc fusion protein [6]

B3: SEQ ID NO 81 (designed binder)
chain: VSDVPRDLEVVAATPTSLLISWDAPAVTVRYYRITYGESHHYGPQEFTVPGSKSTATISLLGAHVDYTITVYAVTGRGESPASSKPISINYHGLY
binds: hen egg white lysozyme

From patent publication US9296810 (Novartis, dated 2016)
